{
  "source": "paper doi:10.1101/2020.08.19.257774",
  "key": {"[1]": {"biological_target": "A. thaliana Light-dependent Protochlorophyllide OxidoReductase isoform A (AtPORA) (A. thaliana) (UniProt Q42536)", "test": "negative stain EM"}, "[2]": {"biological_target": "A. thaliana Light-dependent Protochlorophyllide OxidoReductase isoform C (AtPORC) (A. thaliana) (UniProt O48741)", "test": "negative stain EM"}},
  "note": "No constants are given. Whether binding was seen depends on the method and setting. Some binding calls cover weakened binding; strength is not graded here.",
  "data": [
    {"binder": "A. thaliana Light-dependent Protochlorophyllide OxidoReductase isoform A (AtPORA) (enzyme, UniProt Q42536 70-405) QAIATSTPSVTKSSLDRKKTLRKGNVVVTGASSGLGLATAKALAETGKWHVIMACRDFLKAERAAQSAGMPKDSYTVMHLDLASLDSVRQFVDNFRRAEMPLDVLVCNAAVYQPTANQPTFTAEGFELSVGINHLGHFLLSRLLIDDLKNSDYPSKRLIIVGSITGNTNTLAGNVPPKANLGDLRGLAGGLNGLNSSAMIDGGDFVGAKAYKDSKVCNMLTMQEFHRRFHEDTGITFASLYPGCIATTGLFREHIPLFRTLFPPFQKYITKGYVSESEAGKRLAQVVADPSLTKSGVYWSWNKTSASFENQLSQEASDVEKARRVWEVSEKLVGLA", "values": [
      {"measurement": "binding", "setting": "[1]", "result": "binds"}
    ]},
    {"binder": "A. thaliana Light-dependent Protochlorophyllide OxidoReductase isoform C (AtPORC) (enzyme, UniProt O48741 68-401) QTVTATPPANEASPEQKKTERKGTAVITGASSGLGLATAKALADTGKWHVIMACRNFLKAEKAARSVGMSKEDYTVMHLDLASLESVKQFVENFRRTEQPLDVLVCNAAVYQPTAKEPSFTAEGFEISVGTNHLGHFLLSRLLLDDLKKSDYPSKRMIIVGSITGNTNTLAGNVPPKANLGDLRGLASGLNGQNSSMIDGGEFDGAKAYKDSKVCNMLTMQELHRRYHEETGVTFASLYPGCIATTGLFREHIPLFRLLFPPFQKYITKGYVSEEEAGKRLAQVVSDPSLGKSGVYWSWNNNSSSFENQLSKEASDAEKAKKLWEVSEKLVGLA", "values": [
      {"measurement": "binding", "setting": "[2]", "result": "binds"}
    ]}
  ]
}
